Measurements as given in publication PMC9513469.
Read-outs that look alike come from different tables or passages of the source. These are yes or no findings as the source states them, for the method shown. In cells and extracts the contact can be indirect. A yes stands for co-enrichment or nearness to the bait. Other partners may have been found.

Sequences of proteins named here, by UniProt entry; tags and fusion partners are left off.
UniProt Q94BT6: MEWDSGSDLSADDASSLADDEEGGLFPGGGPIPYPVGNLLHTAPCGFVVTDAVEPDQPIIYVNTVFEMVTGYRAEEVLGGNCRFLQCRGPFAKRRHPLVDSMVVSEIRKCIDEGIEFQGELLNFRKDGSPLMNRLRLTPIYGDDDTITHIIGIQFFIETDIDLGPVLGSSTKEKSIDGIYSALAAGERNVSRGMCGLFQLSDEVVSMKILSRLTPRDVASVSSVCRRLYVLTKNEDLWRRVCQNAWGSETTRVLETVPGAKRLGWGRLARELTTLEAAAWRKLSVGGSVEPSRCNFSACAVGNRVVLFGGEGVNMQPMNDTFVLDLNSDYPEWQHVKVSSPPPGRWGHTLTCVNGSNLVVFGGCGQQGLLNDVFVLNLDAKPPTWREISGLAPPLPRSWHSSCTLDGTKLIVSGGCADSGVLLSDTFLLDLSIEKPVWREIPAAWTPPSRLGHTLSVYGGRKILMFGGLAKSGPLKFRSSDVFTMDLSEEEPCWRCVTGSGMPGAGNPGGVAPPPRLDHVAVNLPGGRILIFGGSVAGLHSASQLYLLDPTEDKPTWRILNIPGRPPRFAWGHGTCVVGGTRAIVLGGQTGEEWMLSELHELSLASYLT
UniProt Q9SQI2: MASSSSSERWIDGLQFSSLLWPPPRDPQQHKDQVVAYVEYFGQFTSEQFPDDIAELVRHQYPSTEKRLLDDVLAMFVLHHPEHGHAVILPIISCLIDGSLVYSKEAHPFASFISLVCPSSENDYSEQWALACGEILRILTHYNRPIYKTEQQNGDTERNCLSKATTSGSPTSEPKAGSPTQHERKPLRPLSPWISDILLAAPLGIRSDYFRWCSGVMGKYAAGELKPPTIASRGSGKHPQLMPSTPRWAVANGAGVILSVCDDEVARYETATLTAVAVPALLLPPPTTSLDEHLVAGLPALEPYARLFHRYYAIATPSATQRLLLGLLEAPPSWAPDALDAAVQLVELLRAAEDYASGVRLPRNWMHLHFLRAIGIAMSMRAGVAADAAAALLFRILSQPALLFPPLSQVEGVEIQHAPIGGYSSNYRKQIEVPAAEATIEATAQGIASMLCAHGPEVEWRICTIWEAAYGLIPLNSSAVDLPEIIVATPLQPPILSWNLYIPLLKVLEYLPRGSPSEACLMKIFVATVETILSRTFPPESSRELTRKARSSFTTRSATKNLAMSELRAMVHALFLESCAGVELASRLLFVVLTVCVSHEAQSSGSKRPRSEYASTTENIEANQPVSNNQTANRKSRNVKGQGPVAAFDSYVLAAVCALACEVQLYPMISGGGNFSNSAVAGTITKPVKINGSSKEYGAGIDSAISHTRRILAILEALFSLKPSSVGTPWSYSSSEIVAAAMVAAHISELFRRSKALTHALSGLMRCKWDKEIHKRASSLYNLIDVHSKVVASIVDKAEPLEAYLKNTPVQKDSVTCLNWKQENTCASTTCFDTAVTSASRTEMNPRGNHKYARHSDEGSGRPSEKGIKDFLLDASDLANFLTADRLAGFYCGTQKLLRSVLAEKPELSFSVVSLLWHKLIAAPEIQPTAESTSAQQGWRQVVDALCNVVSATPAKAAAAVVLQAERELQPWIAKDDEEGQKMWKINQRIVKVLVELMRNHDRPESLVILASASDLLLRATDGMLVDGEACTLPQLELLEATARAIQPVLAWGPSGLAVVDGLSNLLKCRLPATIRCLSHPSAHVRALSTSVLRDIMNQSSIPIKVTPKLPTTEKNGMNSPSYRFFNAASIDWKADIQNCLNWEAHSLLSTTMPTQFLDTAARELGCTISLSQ

Legend:
[1] = target: ZTL with a YFP tag at the C-terminus, in ZTL-overexpressing plants (ZTL-ox) (Arabidopsis thaliana) (UniProt Q94BT6); assay: affinity purification with mass spectrometry; IP-MS with an anti-GFP antibody in ZTL-overexpressing plants (ZTL-YFP)
[2] = target: ZTL with a YFP tag at the C-terminus, in ZTL-overexpressing plants (ZTL-ox) (Arabidopsis thaliana) (UniProt Q94BT6); assay: as above; remark: listed apart in the source

| Molecule | binding [1] | binding [2] |
| --- | --- | --- |
| SnRK2.1 (protein, UniProt P43292 1-353) MDKYDVVKDLGAGNFGVARLLRHKDTKELVAMKYIERGRKIDENVAREIINHRSLKHPNIIRFKEVILTPTHLAIVMEYASGGELFDRICTAGRFSEAEARYFFQQLICGVDYCHSLQICHRDLKLENTLLDGSPAPLLKICDFGYSKSSILHSRPKSTVGTPAYIAPEVLSRREYDGKHADVWSCGVTLYVMLVGAYPFEDPNDPKNFRKTIQRIMAVQYKIPDYVHISQECKHLLSRIFVTNSAKRITLKEIKNHPWYLKNLPKELLESAQAAYYKRDTSFSLQSVEDIMKIVGEARNPAPSTSAVKSSGSGADEEEEEDVEAEVEEEEDDEDEYEKHVKEAQSCQESDKA |  | binds |
| CHLH/ABAR (Mg-chelatase H subunit/putative ABA receptor), endogenous (protein, UniProt Q9FNB0 50-1381) AVSGNGLFTQTNPEVRRIVPIKRDNVPTVKIVYVVLEAQYQSSLSEAVQSLNKTSRFASYEVVGYLVEELRDKNTYNNFCEDLKDANIFIGSLIFVEELAIKVKDAVEKERDRMDAVLVFPSMPEVMRLNKLGSFSMSQLGQSKSPFFQLFKRKKQGSAGFADSMLKLVRTLPKVLKYLPSDKAQDARLYILSLQFWLGGSPDNLQNFVKMISGSYVPALKGVKIEYSDPVLFLDTGIWHPLAPTMYDDVKEYWNWYDTRRDTNDSLKRKDATVVGLVLQRSHIVTGDDSHYVAVIMELEARGAKVVPIFAGGLDFSGPVEKYFVDPVSKQPIVNSAVSLTGFALVGGPARQDHPRAIEALKKLDVPYLVAVPLVFQTTEEWLNSTLGLHPIQVALQVALPELDGAMEPIVFAGRDPRTGKSHALHKRVEQLCIRAIRWGELKRKTKAEKKLAITVFSFPPDKGNVGTAAYLNVFASIFSVLRDLKRDGYNVEGLPENAETLIEEIIHDKEAQFSSPNLNVAYKMGVREYQDLTPYANALEENWGKPPGNLNSDGENLLVYGKAYGNVFIGVQPTFGYEGDPMRLLFSKSASPHHGFAAYYSYVEKIFKADAVLHFGTHGSLEFMPGKQVGMSDACFPDSLIGNIPNVYYYAANNPSEATIAKRRSYANTISYLTPPAENAGLYKGLKQLSELISSYQSLKDTGRGPQIVSSIISTAKQCNLDKDVDLPDEGLELSPKDRDSVVGKVYSKIMEIESRLLPCGLHVIGEPPSAMEAVATLVNIAALDRPEDEISALPSILAECVGREIEDVYRGSDKGILSDVELLKEITDASRGAVSAFVEKTTNSKGQVVDVSDKLTSLLGFGINEPWVEYLSNTKFYRANRDKLRTVFGFLGECLKLVVMDNELGSLMQALEGKYVEPGPGGDPIRNPKVLPTGKNIHALDPQAIPTTAAMASAKIVVERLVERQKLENEGKYPETIALVLWGTDNIKTYGESLGQVLWMIGVRPIADTFGRVNRVEPVSLEELGRPRIDVVVNCSGVFRDLFINQMNLLDRAIKMVAELDEPVEQNFVRKHALEQAEALGIDIREAATRVFSNASGSYSANISLAVENSSWNDEKQLQDMYLSRKSFAFDSDAPGAGMAEKKQVFEMALSTAEVTFQNLDSSEISLTDVSHYFDSDPTNLVQSLRKDKKKPSSYIADTTTANAQVRTLSETVRLDARTKLLNPKWYEGMMSSGYEGVREIEKRLSNTVGWSATSGQVDNWVYEEANSTFIQDEEMLNRLMNTNPNSFRKMLQTFLEANGRGYWDTSAENIEKLKELYSQVEDKIEGIDR |  | binds |

More lines, now with the values ahead:

| binding [1] | binding [2] | Molecule |
| --- | --- | --- |
| binds |  | GIGANTEA (GI) (from UniProt Q9SQI2 1-1173) |
|  | binds | SnRK2.2 (protein, UniProt Q39192 1-362) MDPATNSPIMPIDLPIMHDSDRYDFVKDIGSGNFGVARLMTDRVTKELVAVKYIERGEKIDENVQREIINHRSLRHPNIVRFKEVILTPSHLAIVMEYAAGGELYERICNAGRFSEDEARFFFQQLISGVSYCHAMQICHRDLKLENTLLDGSPAPRLKICDFGYSKSSVLHSQPKSTVGTPAYIAPEILLRQEYDGKLADVWSCGVTLYVMLVGAYPFEDPQEPRDYRKTIQRILSVTYSIPEDLHLSPECRHLISRIFVADPATRITIPEITSDKWFLKNLPGDLMDENRMGSQFQEPEQPMQSLDTIMQIISEATIPTVRNRCLDDFMADNLDLDDDMDDFDSESEIDVDSSGEIVYAL |
